Some of the results follow.
How the values were obtained:
Assay in all cases: log2 fold change, soluble protein after heating vs DMSO (PISA); higher = thermal stabilisation; K562 lysate, 10 uM; active = over 0.2 and 3.5 SD of the protein, either way, in both replicates (recomputed)
nilotinib = compound: Cc1cn(-c2cc(NC(=O)c3ccc(C)c(Nc4nccc(-c5cccnc5)n4)c3)cc(C(F)(F)F)c2)cn1 [nilotinib]
Outline: (§1)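 The values are log-two fold changes in thermal stability compared with solvent controls and come from duplicates. They were obtained by TMTpro 16plex LC-MS/MS, with channel sums equalised, on the supernatant after 21,000xg for 90 min. That supernatant came from crude K562 extract at 1 mg/mL protein treated with 10 μM compound for 30 min, heated for 3 min across 48°C-58°C, pooled and brought to 0.5% NP-40 at 4°C.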

The chains behind the UniProt entries cited, without tags or fusion partners. Where a name states a change or a piece, a line headed by the entry shows the natural chain unless it says otherwise.
UniProt Q14004, whole entry, looked up: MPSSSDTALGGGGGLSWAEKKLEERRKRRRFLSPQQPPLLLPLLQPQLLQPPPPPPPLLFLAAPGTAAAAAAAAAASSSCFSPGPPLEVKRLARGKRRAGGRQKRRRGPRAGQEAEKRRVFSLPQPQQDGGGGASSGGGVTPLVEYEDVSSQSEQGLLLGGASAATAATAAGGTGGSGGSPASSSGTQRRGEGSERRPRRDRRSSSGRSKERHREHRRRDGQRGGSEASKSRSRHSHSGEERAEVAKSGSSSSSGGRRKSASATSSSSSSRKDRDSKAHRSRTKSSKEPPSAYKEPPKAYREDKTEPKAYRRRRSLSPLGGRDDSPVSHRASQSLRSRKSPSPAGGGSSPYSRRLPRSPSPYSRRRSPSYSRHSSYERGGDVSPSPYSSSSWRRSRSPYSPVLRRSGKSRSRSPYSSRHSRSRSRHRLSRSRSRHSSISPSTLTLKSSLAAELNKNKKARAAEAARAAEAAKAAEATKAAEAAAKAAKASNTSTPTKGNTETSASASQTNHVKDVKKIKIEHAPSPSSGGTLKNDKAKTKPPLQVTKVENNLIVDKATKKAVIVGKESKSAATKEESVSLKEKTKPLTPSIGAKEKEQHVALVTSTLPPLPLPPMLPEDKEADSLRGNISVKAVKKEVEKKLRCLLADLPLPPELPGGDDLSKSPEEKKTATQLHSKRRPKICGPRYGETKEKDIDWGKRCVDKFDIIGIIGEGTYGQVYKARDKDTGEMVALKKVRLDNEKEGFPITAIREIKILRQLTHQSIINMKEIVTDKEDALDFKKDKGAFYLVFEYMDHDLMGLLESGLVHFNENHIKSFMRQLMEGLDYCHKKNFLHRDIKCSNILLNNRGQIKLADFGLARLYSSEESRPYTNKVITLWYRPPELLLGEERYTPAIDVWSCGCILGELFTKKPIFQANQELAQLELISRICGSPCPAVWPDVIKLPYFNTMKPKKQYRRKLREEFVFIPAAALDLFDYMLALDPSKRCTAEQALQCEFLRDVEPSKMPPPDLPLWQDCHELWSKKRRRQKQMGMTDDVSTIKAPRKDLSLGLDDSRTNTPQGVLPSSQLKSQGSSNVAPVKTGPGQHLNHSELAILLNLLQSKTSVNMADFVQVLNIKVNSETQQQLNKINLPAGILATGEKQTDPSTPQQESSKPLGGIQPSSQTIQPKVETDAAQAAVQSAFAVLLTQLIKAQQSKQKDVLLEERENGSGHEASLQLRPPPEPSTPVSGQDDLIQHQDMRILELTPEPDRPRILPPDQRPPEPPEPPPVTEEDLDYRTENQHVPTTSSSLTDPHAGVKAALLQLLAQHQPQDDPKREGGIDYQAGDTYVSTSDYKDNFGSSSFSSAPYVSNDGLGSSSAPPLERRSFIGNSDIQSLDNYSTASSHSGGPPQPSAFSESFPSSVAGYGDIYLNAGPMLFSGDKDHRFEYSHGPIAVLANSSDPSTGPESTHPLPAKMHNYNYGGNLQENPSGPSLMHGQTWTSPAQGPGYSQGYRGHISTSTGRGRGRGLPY
UniProt Q9UNH5: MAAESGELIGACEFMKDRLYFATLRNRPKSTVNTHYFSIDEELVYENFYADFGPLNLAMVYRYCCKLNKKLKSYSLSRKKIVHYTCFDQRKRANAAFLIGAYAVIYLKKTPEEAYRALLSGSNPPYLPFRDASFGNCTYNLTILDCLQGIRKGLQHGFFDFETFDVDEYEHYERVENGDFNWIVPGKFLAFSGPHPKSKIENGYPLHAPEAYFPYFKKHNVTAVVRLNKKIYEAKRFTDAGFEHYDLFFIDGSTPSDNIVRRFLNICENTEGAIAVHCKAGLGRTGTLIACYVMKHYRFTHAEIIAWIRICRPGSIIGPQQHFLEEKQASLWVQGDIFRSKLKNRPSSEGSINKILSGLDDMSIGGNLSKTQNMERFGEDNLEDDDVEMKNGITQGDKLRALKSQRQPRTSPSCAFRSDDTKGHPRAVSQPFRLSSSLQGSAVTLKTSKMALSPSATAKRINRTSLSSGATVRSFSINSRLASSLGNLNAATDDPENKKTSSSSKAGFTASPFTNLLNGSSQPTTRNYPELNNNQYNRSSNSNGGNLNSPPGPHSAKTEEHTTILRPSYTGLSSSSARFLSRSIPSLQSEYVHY
UniProt Q6P2H3: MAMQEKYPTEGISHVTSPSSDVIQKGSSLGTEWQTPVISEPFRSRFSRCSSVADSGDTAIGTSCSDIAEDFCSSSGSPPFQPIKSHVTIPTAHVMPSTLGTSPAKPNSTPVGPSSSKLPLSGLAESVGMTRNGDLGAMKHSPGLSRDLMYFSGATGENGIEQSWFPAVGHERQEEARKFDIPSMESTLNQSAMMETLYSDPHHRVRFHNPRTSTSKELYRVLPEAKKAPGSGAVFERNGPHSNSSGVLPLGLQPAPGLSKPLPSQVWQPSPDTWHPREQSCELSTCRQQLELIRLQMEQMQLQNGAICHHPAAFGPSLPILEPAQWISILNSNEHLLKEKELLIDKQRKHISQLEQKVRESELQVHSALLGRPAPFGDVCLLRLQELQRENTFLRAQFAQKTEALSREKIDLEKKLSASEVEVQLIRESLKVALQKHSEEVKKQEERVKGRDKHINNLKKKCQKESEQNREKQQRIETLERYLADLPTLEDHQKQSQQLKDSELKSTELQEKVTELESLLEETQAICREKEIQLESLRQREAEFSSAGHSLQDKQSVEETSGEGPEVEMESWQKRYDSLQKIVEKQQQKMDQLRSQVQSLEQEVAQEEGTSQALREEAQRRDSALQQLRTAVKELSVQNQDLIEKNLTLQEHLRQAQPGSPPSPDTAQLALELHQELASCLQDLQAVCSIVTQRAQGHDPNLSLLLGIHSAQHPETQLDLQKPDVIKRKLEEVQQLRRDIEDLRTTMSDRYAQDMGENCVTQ
UniProt Q96MT8: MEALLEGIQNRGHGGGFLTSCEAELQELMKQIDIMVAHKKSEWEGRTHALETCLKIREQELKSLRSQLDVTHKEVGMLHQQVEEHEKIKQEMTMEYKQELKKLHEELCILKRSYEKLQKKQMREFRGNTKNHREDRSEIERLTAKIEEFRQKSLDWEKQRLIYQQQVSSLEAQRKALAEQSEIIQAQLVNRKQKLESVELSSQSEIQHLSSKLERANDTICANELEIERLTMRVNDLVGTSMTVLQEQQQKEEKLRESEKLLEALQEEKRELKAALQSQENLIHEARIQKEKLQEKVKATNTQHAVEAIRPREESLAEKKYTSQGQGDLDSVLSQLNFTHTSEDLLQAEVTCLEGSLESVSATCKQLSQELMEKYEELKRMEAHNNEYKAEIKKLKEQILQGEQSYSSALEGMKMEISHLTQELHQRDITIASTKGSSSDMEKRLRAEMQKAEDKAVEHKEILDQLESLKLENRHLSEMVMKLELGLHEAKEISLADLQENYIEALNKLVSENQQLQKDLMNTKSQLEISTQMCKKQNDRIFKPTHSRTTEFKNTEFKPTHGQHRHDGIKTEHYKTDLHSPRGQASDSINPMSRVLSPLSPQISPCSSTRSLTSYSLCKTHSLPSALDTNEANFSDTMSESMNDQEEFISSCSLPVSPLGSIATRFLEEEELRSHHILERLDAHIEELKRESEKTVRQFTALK
UniProt Q8IYX8: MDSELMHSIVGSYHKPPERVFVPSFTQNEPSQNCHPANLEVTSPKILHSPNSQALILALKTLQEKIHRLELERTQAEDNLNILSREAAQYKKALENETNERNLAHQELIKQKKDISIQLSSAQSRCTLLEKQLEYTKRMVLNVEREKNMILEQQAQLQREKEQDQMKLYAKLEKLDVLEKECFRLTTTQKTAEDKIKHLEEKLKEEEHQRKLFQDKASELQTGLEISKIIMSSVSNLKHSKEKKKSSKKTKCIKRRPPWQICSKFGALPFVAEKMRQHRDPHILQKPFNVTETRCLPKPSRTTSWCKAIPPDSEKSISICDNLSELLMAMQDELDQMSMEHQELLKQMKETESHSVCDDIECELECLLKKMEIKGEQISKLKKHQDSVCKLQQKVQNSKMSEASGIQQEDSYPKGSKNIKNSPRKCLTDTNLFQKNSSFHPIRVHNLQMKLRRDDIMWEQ
UniProt Q7Z7K6: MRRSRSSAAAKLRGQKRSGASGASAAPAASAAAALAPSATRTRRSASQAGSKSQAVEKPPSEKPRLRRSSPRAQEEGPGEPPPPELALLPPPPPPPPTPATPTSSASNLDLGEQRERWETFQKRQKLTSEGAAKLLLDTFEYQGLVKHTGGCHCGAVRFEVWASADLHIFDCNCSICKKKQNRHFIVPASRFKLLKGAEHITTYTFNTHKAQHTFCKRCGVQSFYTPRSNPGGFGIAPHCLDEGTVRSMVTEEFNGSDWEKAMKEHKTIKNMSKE
UniProt Q6DT37: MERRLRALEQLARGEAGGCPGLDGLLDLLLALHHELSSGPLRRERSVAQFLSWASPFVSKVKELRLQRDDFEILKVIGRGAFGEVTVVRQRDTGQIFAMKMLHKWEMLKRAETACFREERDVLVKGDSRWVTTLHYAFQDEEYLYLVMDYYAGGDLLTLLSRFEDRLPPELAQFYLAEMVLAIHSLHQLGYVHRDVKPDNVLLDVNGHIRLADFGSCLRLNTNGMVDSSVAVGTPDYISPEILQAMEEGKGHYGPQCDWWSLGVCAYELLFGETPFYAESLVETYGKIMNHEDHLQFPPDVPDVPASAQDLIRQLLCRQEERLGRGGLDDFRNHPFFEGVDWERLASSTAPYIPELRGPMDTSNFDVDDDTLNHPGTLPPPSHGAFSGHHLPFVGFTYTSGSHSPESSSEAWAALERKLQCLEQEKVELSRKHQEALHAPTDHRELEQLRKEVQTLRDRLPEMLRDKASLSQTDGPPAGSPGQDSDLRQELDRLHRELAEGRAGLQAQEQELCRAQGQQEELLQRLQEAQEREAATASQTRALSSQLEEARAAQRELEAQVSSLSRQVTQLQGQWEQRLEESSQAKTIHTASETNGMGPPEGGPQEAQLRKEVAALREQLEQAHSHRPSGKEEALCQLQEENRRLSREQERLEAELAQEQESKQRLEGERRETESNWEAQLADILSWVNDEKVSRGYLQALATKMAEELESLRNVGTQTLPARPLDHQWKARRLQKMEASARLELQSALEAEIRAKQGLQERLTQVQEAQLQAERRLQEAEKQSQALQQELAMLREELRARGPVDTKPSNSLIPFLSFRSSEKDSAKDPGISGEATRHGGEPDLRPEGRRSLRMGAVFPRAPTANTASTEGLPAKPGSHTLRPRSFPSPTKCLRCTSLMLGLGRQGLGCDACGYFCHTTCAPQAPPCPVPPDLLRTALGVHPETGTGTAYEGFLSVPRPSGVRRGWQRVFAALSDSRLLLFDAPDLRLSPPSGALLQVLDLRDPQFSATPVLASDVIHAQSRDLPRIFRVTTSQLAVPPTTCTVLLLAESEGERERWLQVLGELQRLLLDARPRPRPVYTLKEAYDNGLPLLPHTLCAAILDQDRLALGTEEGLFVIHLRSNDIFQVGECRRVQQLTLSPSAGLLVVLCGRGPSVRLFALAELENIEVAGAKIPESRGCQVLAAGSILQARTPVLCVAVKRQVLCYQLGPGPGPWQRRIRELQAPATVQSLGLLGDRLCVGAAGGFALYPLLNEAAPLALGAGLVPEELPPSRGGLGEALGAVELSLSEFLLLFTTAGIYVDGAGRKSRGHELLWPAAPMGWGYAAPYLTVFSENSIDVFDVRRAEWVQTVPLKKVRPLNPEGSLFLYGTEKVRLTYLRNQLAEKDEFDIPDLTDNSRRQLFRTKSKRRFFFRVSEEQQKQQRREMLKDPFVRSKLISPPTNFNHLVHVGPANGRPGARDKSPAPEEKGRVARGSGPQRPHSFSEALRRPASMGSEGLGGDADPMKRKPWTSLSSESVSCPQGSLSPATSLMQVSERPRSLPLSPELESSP
UniProt Q9Y592: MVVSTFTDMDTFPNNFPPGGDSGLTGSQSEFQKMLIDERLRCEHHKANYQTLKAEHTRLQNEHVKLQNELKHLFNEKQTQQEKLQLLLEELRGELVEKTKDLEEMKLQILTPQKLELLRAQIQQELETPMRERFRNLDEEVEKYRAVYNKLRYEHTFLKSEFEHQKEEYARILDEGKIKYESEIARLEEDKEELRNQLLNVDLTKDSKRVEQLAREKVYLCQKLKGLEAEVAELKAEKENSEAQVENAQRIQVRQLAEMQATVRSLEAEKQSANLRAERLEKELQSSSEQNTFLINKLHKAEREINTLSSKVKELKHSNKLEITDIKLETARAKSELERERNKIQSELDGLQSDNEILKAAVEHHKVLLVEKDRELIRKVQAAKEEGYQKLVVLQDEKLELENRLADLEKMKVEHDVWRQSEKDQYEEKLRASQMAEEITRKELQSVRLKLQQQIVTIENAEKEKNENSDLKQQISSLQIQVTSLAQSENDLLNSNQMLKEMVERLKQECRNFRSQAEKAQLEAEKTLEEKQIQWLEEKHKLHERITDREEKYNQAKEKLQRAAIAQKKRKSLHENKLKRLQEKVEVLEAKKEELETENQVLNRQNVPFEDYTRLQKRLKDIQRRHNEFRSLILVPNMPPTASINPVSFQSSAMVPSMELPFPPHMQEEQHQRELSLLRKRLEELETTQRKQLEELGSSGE

[1] = compound: Cc1nc(Nc2n[nH]c3c2CN(C(=O)N[C@H](CN(C)C)c2ccccc2)C3(C)C)c2sccc2n1
Outline: as §1

dasatinib = compound: Cc1nc(Nc2ncc(C(=O)Nc3c(C)cccc3Cl)s2)cc(N2CCN(CCO)CC2)n1 [dasatinib]
Outline: as §1

[2] = compound: Cc1ncc(-c2ccnc(Nc3ccc(S(C)(=O)=O)cc3)n2)n1C(C)C
Outline: as §1

[3] = compound: Cn1cc(-c2ccc3c(c2)CCN3C(=O)Cc2cccc(C(F)(F)F)c2)c2c(N)ncnc21
Outline: as §1

quisinostat = compound: Cn1cc(CNCC2CCN(c3ncc(C(=O)NO)cn3)CC2)c2ccccc21 [quisinostat]
Outline: as §1

tipifarnib = compound: Cn1cncc1[C@@](N)(c1ccc(Cl)cc1)c1ccc2c(c1)c(-c1cccc(Cl)c1)cc(=O)n2C [tipifarnib]
Outline: as §1

[4] = compound: NC(=O)Nc1cc(-c2cccc(F)c2)sc1C(=O)N[C@H]1CCCNC1
Outline: as §1

[5] = compound: NC(=O)c1cnc(N[C@@H]2CCCC[C@@H]2N)nc1Nc1cccc(-n2nccn2)c1
Outline: as §1

[6] = compound: NC1(c2ccc(-c3nc4ccn5c(=O)[nH]nc5c4cc3-c3ccccc3)cc2)CCC1
Outline: as §1

[7] = compound: NCC(=O)Nc1ccc(-n2nc(C(F)(F)F)cc2-c2ccc3c(ccc4ccccc43)c2)cc1
Outline: as §1

vorinostat = compound: O=C(CCCCCCC(=O)Nc1ccccc1)NO [vorinostat]
Outline: as §1

silmitasertib = compound: O=C(O)c1ccc2c(c1)nc(Nc1cccc(Cl)c1)c1ccncc12 [silmitasertib]
Outline: as §1

[8] = compound: O=C1NC(=O)C(c2cnc3ccccn23)=C1c1cn2c3c(cc(F)cc13)CN(C(=O)N1CCCCC1)CC2
Outline: as §1

entospletinib = compound: c1cn2cc(-c3ccc4cn[nH]c4c3)nc(Nc3ccc(N4CCOCC4)cc3)c2n1 [entospletinib]
Outline: as §1

| Target | log2 fold change (nilotinib) | log2 fold change [1] | log2 fold change (dasatinib) | log2 fold change [2] | log2 fold change [3] | log2 fold change (quisinostat) | log2 fold change (tipifarnib) | log2 fold change [4] | log2 fold change [5] | log2 fold change [6] | log2 fold change [7] | log2 fold change (vorinostat) | log2 fold change (silmitasertib) | log2 fold change [8] | log2 fold change (entospletinib) |
| --- | --- | --- | --- | --- | --- | --- | --- | --- | --- | --- | --- | --- | --- | --- | --- |
| CDK13 (UniProt Q14004) | inactive: -0.081 | inactive: 0 | inactive: 0.004 | inactive: -0.051 | inactive: 0.005 | inactive: 0.068 | inactive: 0.032 | inactive: -0.039 | inactive: 0.033 | inactive: 0.131 | inactive: -0.089 | inactive: -0.088 | inactive: 0.093 | inactive: -0.012 | inactive: -0.013 |
| CDC6 (UniProt Q99741) | inactive: -0.014 | inactive: 0.011 | inactive: 0.075 | inactive: -0.015 | inactive: -0.136 | inactive: 0.382 | inactive: -0.024 | inactive: -0.091 | – | inactive: -0.107 | – | inactive: -0.045 | inactive: 0.026 | inactive: -0.23 | – |
| CDC14A isoform 2 (UniProt Q9UNH5) | inactive: -0.076 | inactive: 0.07 | – | inactive: -0.001 | – | inactive: -0.174 | inactive: -0.019 | inactive: 0.083 | inactive: 0.101 | – | – | – | – | inactive: -0.11 | – |
| CENPJ (UniProt Q9HC77) | – | – | inactive: 0.061 | – | inactive: 0.067 | inactive: -0.122 | – | inactive: 0.015 | inactive: -0.296 | inactive: -0.014 | inactive: -0.017 | inactive: -0.161 | inactive: -0.01 | inactive: -0.053 | inactive: -0.009 |
| CDKN1B (UniProt P46527) | – | – | inactive: 0.021 | – | inactive: 0.034 | active: 0.393 | – | inactive: -0.122 | inactive: -0.035 | inactive: 0.045 | inactive: 0.062 | inactive: -0.011 | inactive: 0.048 | inactive: -0.067 | inactive: -0.028 |
| CDC25A (UniProt P30304) | inactive: 0.013 | inactive: -0.01 | inactive: -0.035 | inactive: -0.021 | inactive: 0.024 | inactive: 0.006 | inactive: 0.011 | inactive: 0.017 | inactive: 0.016 | inactive: 0.025 | – | active: -1.01 | inactive: 0.084 | inactive: -0.172 | – |
| CEFIP (UniProt Q711Q0) | inactive: -0.004 | inactive: 0.225 | – | inactive: -0.153 | – | inactive: -0.051 | inactive: 0.056 | inactive: 0.083 | inactive: -0.024 | inactive: 0.117 | inactive: -0.16 | inactive: -0.152 | inactive: 0.157 | inactive: 0.052 | inactive: -0.049 |
| CDC42, A0A494C1M1 | inactive: -0.128 | inactive: 0.009 | – | inactive: 0.079 | – | – | inactive: 0.02 | – | inactive: 0.005 | – | – | – | – | – | – |
| CDK1 (UniProt P06493) | inactive: -0.026 | inactive: 0.018 | inactive: -0.027 | inactive: 0.067 | inactive: -0.02 | inactive: 0.003 | inactive: 0.015 | inactive: 0.012 | inactive: 0.127 | inactive: 0.015 | inactive: 0.029 | inactive: -0.049 | – | inactive: -0.055 | inactive: 0.006 |
| CEP85 isoform 2 (UniProt Q6P2H3) | inactive: -0.027 | inactive: 0.027 | inactive: -0.021 | inactive: 0.015 | inactive: -0.003 | inactive: -0.003 | inactive: -0.062 | inactive: 0.049 | inactive: 0.029 | inactive: -0.007 | inactive: 0.012 | inactive: -0.092 | inactive: 0.007 | inactive: 0.056 | inactive: -0.002 |
| CEP63 (UniProt Q96MT8) | inactive: 0.286 | inactive: -0.195 | inactive: 0.166 | inactive: -0.048 | inactive: -0.105 | – | inactive: 0.117 | – | inactive: -0.034 | inactive: -0.137 | – | inactive: -0.146 | inactive: -0.151 | – | inactive: 0.008 |
| CDK5RAP1 (UniProt Q96SZ6) | inactive: -0.007 | inactive: 0.002 | inactive: 0.037 | inactive: 0.019 | inactive: 0.011 | inactive: 0.049 | inactive: -0.002 | inactive: -0.004 | – | inactive: -0.013 | inactive: 0.011 | inactive: 0.036 | inactive: -0.07 | inactive: 0.016 | inactive: 0.029 |
| CEP295 isoform 3 (UniProt Q9C0D2) | inactive: 0.016 | inactive: 0.046 | – | inactive: 0.006 | – | inactive: 0.017 | inactive: 0.062 | inactive: -0.038 | inactive: 0.14 | inactive: 0.046 | – | inactive: -0.004 | inactive: 0.076 | inactive: -0.076 | inactive: 0.087 |
| CEP57L1 (UniProt Q8IYX8) | inactive: 0.246 | inactive: -0.129 | inactive: 0 | inactive: -0.014 | inactive: 0.34 | inactive: -0.101 | inactive: -0.015 | inactive: 0.041 | – | inactive: 0.031 | – | inactive: -0.23 | inactive: 0.133 | inactive: -0.044 | inactive: -0.029 |
| CDC27 (UniProt G5EA36) | inactive: 0.048 | inactive: 0.012 | inactive: 0.025 | inactive: 0.097 | inactive: 0.008 | inactive: -0.094 | inactive: -0.384 | inactive: 0.081 | inactive: -0.281 | inactive: 0.088 | – | inactive: -0.254 | inactive: 0.041 | inactive: -0.026 | – |
| CENPV (UniProt Q7Z7K6) | active: 1.5 | inactive: -0.184 | – | inactive: 0.816 | – | inactive: 0.038 | inactive: 0.08 | inactive: -0.077 | – | – | inactive: 0.396 | – | – | inactive: 0.039 | inactive: 0.084 |
| CEMIP2 (UniProt Q9UHN6) | – | – | inactive: 0.014 | – | inactive: -0.052 | inactive: -0.061 | – | inactive: 0.02 | inactive: 0.009 | inactive: -0.019 | inactive: -0.125 | inactive: 0.153 | inactive: -0.013 | inactive: -0.006 | inactive: 0.017 |
| CDK2 (UniProt P24941) | inactive: -0.01 | – | inactive: 0.018 | – | inactive: 0.01 | inactive: -0.077 | inactive: 0.011 | inactive: 0.005 | inactive: 0.067 | inactive: -0.012 | inactive: -0.02 | inactive: 0.006 | inactive: 0.248 | inactive: 0.202 | inactive: 0.039 |
| CDC42BPG (UniProt Q6DT37) | inactive: -0.103 | inactive: 0.065 | inactive: -0.005 | inactive: 0.081 | inactive: 0.001 | inactive: -0.046 | inactive: -0.111 | inactive: 0.252 | inactive: -0.012 | – | – | – | – | inactive: -0.009 | – |
| CEP83 (UniProt Q9Y592) | inactive: 0.011 | inactive: 0.009 | – | inactive: 0.031 | – | inactive: 0.013 | inactive: -0.167 | inactive: 0.004 | inactive: 0.034 | inactive: -0.195 | inactive: -0.052 | inactive: -0.003 | inactive: -0.139 | inactive: 0.027 | – |

Whole records as entered above. Values in the order: log2 fold change (nilotinib)	log2 fold change [1]	log2 fold change (dasatinib)	log2 fold change [2]	log2 fold change [3]	log2 fold change (quisinostat)	log2 fold change (tipifarnib)	log2 fold change [4]	log2 fold change [5]	log2 fold change [6]	log2 fold change [7]	log2 fold change (vorinostat)	log2 fold change (silmitasertib)	log2 fold change [8]	log2 fold change (entospletinib)
CEP85 isoform 2 (UniProt Q6P2H3) is listed as inactive: -0.027	inactive: 0.027	inactive: -0.021	inactive: 0.015	inactive: -0.003	inactive: -0.003	inactive: -0.062	inactive: 0.049	inactive: 0.029	inactive: -0.007	inactive: 0.012	inactive: -0.092	inactive: 0.007	inactive: 0.056	inactive: -0.002
CDC42, A0A494C1M1 is listed as inactive: -0.128	inactive: 0.009	–	inactive: 0.079	–	–	inactive: 0.02	–	inactive: 0.005	–	–	–	–	–	–
